Source: ChEMBL document CHEMBL3988442, “University of Dundee, Small-Polar-MMV Screening Library” (2021).

By UniProt entry, the sequences of proteins in these tests, tags left out. Residues count along the entry.
UniProt Q4DA54, 1-478: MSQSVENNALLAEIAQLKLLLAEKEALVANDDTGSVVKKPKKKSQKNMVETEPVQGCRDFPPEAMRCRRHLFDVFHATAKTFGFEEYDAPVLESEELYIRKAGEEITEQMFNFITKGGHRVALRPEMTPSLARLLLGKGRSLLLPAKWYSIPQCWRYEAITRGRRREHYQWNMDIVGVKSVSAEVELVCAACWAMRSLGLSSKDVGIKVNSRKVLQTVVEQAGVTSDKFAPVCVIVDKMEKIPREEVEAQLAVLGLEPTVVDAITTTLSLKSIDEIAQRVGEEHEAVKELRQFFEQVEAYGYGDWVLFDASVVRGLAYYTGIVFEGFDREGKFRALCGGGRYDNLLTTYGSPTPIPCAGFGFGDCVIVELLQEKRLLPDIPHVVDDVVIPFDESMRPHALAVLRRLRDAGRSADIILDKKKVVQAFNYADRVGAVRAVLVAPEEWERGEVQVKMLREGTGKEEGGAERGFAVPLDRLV
UniProt A4I591, 1-473: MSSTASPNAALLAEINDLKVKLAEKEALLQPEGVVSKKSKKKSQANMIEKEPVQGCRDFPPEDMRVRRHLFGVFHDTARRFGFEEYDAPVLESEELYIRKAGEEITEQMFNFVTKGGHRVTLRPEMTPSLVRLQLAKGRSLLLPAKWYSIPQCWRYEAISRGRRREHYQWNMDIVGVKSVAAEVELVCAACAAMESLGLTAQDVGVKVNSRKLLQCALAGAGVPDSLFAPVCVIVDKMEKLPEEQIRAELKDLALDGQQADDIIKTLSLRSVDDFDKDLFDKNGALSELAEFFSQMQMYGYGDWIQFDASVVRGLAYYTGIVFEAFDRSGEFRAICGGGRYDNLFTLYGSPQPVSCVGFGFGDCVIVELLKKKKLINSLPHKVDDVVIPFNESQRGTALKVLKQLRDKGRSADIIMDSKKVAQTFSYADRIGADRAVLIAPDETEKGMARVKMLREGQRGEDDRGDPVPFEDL
UniProt Q8IDJ8, 1-583: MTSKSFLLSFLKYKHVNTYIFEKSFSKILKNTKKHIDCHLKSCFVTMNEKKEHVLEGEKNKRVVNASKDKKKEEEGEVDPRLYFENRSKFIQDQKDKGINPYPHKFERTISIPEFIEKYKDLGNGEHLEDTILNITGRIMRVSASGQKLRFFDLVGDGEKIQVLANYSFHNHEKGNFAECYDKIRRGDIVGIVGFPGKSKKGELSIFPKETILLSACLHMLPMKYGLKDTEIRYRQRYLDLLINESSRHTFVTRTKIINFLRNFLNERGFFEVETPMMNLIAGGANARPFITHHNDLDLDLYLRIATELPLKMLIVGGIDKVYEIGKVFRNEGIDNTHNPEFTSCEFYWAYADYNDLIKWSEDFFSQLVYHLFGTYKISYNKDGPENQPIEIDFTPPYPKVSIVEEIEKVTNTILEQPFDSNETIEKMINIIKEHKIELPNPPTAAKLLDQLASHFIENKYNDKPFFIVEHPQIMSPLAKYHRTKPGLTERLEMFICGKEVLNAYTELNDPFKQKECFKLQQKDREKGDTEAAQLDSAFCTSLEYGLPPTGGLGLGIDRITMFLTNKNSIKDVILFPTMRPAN
UniProt P9WNZ1, whole entry: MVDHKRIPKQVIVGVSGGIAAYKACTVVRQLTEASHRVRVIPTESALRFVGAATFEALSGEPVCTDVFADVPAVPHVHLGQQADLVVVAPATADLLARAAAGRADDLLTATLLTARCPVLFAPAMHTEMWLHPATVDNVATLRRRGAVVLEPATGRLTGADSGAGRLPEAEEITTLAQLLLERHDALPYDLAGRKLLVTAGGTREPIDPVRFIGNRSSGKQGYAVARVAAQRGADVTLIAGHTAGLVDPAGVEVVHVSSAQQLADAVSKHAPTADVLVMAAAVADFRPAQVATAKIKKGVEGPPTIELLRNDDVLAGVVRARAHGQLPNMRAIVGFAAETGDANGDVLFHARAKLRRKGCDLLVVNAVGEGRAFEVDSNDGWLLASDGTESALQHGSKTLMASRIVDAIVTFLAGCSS

TcHisRS: 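Histidine-tRNA ligase, Trypanosoma cruzi CL Brener (UniProt Q4DA54). Enzyme assay of histidyl-tRNA synthetase; the read-out is not stated. Tested at 30 µM. Direction is inferred from retests: higher values go with stronger inhibition. About 69,000 compounds were tested under these conditions; 0.045% (about 31) showed 50% or more at least once.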
LiHisRS: 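Histidine-tRNA ligase, Leishmania infantum (UniProt A4I591). Enzyme assay of histidyl-tRNA synthetase; the read-out is not stated. Concentration: 30 µM. The record gives no direction; compounds that gave an IC50 in retests scored well above the rest, so higher reads as stronger inhibition. The assay is labelled LdHisRS but filed under L. infantum. Size under these conditions: about 69,000 compounds, about 410 of them at 50% or above in at least one test.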
Toxoplasma: 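Assay of Toxoplasma gondii numbers, read through their beta-galactosidase reporter with a colour substrate. Concentration: 10 µM. Higher reads as fewer parasites (inferred from which compounds were picked for retests). Of about 67,000 compounds tested this way, about 260 (0.38%) reached 50% or more in at least one test.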
PfKRS1: 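Enzyme assay of the cytosolic lysyl-tRNA synthetase in 384-well plates, read by luminescence. Target: Lysine-tRNA ligase, Plasmodium falciparum 3D7 (UniProt Q8IDJ8). Compounds at 30 µM. Direction is inferred from only a few compounds that gave an IC50; most scored high, so higher reads as stronger inhibition. Of about 69,000 compounds tested this way, about 49 (0.071%) reached 50% or more in at least one test.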
CoaBC: 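Coenzyme A biosynthesis protein CoaBC, Mycobacterium tuberculosis (UniProt P9WNZ1). Enzyme assay of CoaBC with a phosphate dye (Biomol Green) read at 650 nm. Tested at 30 µM. Higher reads as stronger inhibition, judged from the few compounds that gave an IC50. Most strong results did not repeat in a second test. Of about 67,000 compounds tested this way, about 40 (0.06%) reached 50% or more in at least one test.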

Values are the deposited “Percent Effect”, in %. The record does not define 0% and 100%; most values in the screen are far below 50% and negative numbers occur (in some assays of this library far below -100). Compounds were drawn at random from those tested, without regard to their results.

With CC1(C)O[C@@](C)([C@H]2CC3(CCN(c4cnccn4)CC3)CO2)CC[C@@H]1O the screen gave TcHisRS: 3.788%; LiHisRS: 4.225%; PfKRS1: 3.425%; CoaBC: -0.7398%. With Cc1nn(C)c(C)c1C1CCCN1C(=O)c1ccc(N(C)C)nc1 (centres undefined) the screen gave TcHisRS: 8.455%; LiHisRS: 12.84%; Toxoplasma: 8.08%; PfKRS1: 0.1504%; CoaBC: 3.861%. Result for Cl.O=C(NCC(F)F)c1cnc(C2CCCN2)cn1 (centres undefined) was Toxoplasma: 23.57%. For O=C(O)C(F)(F)F.OCCN1CCC2(CCc3cc(-c4ccoc4)ccc32)CC1 the result was Toxoplasma: 10.76%. Cc1cc(F)c2c(c1)CCCN2S(=O)(=O)c1ncn(C)c1Cl read TcHisRS: 13.33%; LiHisRS: 16.96%; Toxoplasma: -1.977%; PfKRS1: 5.718%; CoaBC: 6.198%. Result for Cc1ccccc1-c1cc(NC(=O)NC2CCC(O)CC2)n(CCO)n1 (centres undefined) was TcHisRS: 2.941%; LiHisRS: 11.2%; Toxoplasma: -7.495%; PfKRS1: -0.2525%; CoaBC: 0.2439%. CC1(C(=O)N2CCOCC2)CN(Cc2ncc[nH]2)CCO1 (centres undefined) gave TcHisRS: -6.667%; LiHisRS: -6.186%; Toxoplasma: 8.09%; PfKRS1: -2.331%; CoaBC: -3.632%.

Result for O=C1CCC2(CCCN(C(=O)c3ccccn3)CC2)N1 (centres undefined) was TcHisRS: 5.825%; LiHisRS: 19.42%; PfKRS1: 0.7113%; CoaBC: 5.089%. Result for O=S(=O)(c1ccccc1Cl)N1CCC2(CC1)OCCS2 was TcHisRS: 7.772%; LiHisRS: 19.35%; Toxoplasma: 1.097%; PfKRS1: 3.345%; CoaBC: 1.908%. With O=C(c1ccncc1)N1CCC2(CC1)C(=O)Nc1ccccc12 the screen gave TcHisRS: 6.522%; LiHisRS: 22.37%; PfKRS1: 0.9101%; CoaBC: 7.477%. For Cc1nc(CN2CCc3ncnc(-c4ccc(F)cc4)c3CC2)cs1.O=C(O)C(F)(F)F the result was Toxoplasma: 0.6993%. Result for Cc1ccc(CN[C@@H]2COC[C@H]2Cc2cc(C)no2)cc1 was TcHisRS: 4.494%; LiHisRS: 10%; PfKRS1: 0.9812%; CoaBC: 5.824%. CCNC(=O)c1ccc2c(c1)nc1n2CCN(Cc2ccco2)C1 gave TcHisRS: 0%; LiHisRS: 17.14%; Toxoplasma: 2.363%; PfKRS1: -2.101%; CoaBC: -0.9447%. Cc1c(CN2CC[C@@H](N3CCC(O)CC3)[C@H](O)C2)[nH]c2ccc(F)cc12 read TcHisRS: 1.98%; LiHisRS: 1.099%; Toxoplasma: -1.842%; PfKRS1: -5.789%; CoaBC: -1.446%.

With Cc1noc(C)c1CN(C)c1nc(C2CCCC2)nc2c1cnn2C the screen gave TcHisRS: 3.518%; LiHisRS: 4.494%; Toxoplasma: 20.49%; PfKRS1: 2.5%; CoaBC: -1.083%. CN(CC1CC1)c1ccc2ccc(C(=O)NCCN3CCOCC3)cn12 read TcHisRS: 42.11%; LiHisRS: 17.07%; Toxoplasma: -0.3168%; PfKRS1: 0.7423%; CoaBC: 6.53%. Result for Cc1cccc(CN2CCC3(CCCN(C(=O)c4ccsc4)C3)C2=O)n1.O=C(O)C(F)(F)F (centres undefined) was Toxoplasma: -0.1109%. With Cn1cc(CN2C[C@@H]3COC[C@]3(CNC(=O)c3ccco3)C2)cn1 the screen gave TcHisRS: 5.102%; LiHisRS: 19%; PfKRS1: -2.117%; CoaBC: 2.101%. Result for CCOc1cccc2c1OCC(C(=O)NS(=O)(=O)c1ccc(C)s1)=C2 was TcHisRS: 2.256%; LiHisRS: -9.524%; Toxoplasma: 0.2872%; PfKRS1: 9.031%; CoaBC: -0.5931%. Result for CC1c2ncc(CNC(=O)C3CC3)n2CCN1Cc1ccncc1.O=C(O)C(F)(F)F.O=C(O)C(F)(F)F (centres undefined) was Toxoplasma: 15.96%. Result for O=C1O[C@@H]2CN(S(=O)(=O)N3CCCC3)C[C@@H]2N1CCc1cccc(Cl)c1 was TcHisRS: 6.704%; LiHisRS: 7.292%; PfKRS1: 4.382%; CoaBC: -1.542%.

For O=C(NC1CC1)N1CCc2ncc(CN3CCOCC3)n2CC1.O=C(O)C(F)(F)F the result was Toxoplasma: -6.281%. For COc1ccc(C[C@H]2CN(c3nnc(C)s3)CC[C@@H]2OC)cc1 the result was TcHisRS: 0.5405%; LiHisRS: 22.64%; PfKRS1: 3.892%; CoaBC: 4.442%. With CCOCC1CN(CC2CCC2)Cc2nnn(CC3CC3)c21 (centres undefined) the screen gave TcHisRS: 14.44%; LiHisRS: 26.42%; Toxoplasma: -10.3%; PfKRS1: 3.929%; CoaBC: 4.634%. For CSc1ccccc1NC(=O)c1ccc(N2CCOCC2)nn1 the result was TcHisRS: 3.704%; LiHisRS: 14.67%; Toxoplasma: -7.788%; PfKRS1: 5.549%; CoaBC: 12.13%. With Cc1cccnc1Nc1nccc(C2CN(CC(N)=O)C2)n1 the screen gave TcHisRS: 12.69%; LiHisRS: 17.89%; Toxoplasma: -8.527%; PfKRS1: -0.8372%; CoaBC: 9.976%. Result for CN(C)c1ccccc1C(=O)N1C[C@@H](CN2CCOCC2)[C@@H](CO)C1 was TcHisRS: 3.306%; LiHisRS: 24.76%; Toxoplasma: -6.311%; PfKRS1: 3.287%; CoaBC: -4.386%. With CCN(Cc1csc(C)n1)c1cccc(CO)c1 the screen gave TcHisRS: 1.734%; LiHisRS: 17.33%; Toxoplasma: 2.466%; PfKRS1: 1.467%; CoaBC: 3.306%.

For CCCc1cnc(C)nc1NC(C)Cc1cnccn1 (centres undefined) the result was TcHisRS: 0.9662%; LiHisRS: 15.83%; Toxoplasma: -12.21%; PfKRS1: 2.875%; CoaBC: 5.093%.

4 of the entries, repeated:

With CC1(C(=O)N2CCOCC2)CN(Cc2ncc[nH]2)CCO1 (centres undefined) the screen gave TcHisRS: -6.667%; LiHisRS: -6.186%; Toxoplasma: 8.09%; PfKRS1: -2.331%; CoaBC: -3.632%.
With CCN(Cc1csc(C)n1)c1cccc(CO)c1 the screen gave TcHisRS: 1.734%; LiHisRS: 17.33%; Toxoplasma: 2.466%; PfKRS1: 1.467%; CoaBC: 3.306%.
With Cl.O=C(NCC(F)F)c1cnc(C2CCCN2)cn1 (centres undefined) the screen gave Toxoplasma: 23.57%.
With CC1(C)O[C@@](C)([C@H]2CC3(CCN(c4cnccn4)CC3)CO2)CC[C@@H]1O the screen gave TcHisRS: 3.788%; LiHisRS: 4.225%; PfKRS1: 3.425%; CoaBC: -0.7398%.